From the supplement of paper PMC12823440, “Inhibitors supercharge kinase turnover through native proteolytic circuits” (Nature, 2025)
Where a name gives a salt, the structure may show the parent alone. The list shows a part of the results. The calls rarely recur for the same compound in another form.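 In K562 cells expressing nanoluciferase-fused kinases, luminescence was recorded at 4 h intervals between 2 and 18 h, normalized as percent of control with DMSO at 100% and a positive control at 0%. A significant (2 sigma) signal drop marks a time point as decreased. The authors' rule for a hit is not shown and takes in more than the number of time points.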

By UniProt entry, the sequences of proteins in these tests, tags left out. Where a name states a change or a piece, a line headed by the entry shows the natural chain unless it says otherwise.
UniProt Q16288, whole entry, looked up: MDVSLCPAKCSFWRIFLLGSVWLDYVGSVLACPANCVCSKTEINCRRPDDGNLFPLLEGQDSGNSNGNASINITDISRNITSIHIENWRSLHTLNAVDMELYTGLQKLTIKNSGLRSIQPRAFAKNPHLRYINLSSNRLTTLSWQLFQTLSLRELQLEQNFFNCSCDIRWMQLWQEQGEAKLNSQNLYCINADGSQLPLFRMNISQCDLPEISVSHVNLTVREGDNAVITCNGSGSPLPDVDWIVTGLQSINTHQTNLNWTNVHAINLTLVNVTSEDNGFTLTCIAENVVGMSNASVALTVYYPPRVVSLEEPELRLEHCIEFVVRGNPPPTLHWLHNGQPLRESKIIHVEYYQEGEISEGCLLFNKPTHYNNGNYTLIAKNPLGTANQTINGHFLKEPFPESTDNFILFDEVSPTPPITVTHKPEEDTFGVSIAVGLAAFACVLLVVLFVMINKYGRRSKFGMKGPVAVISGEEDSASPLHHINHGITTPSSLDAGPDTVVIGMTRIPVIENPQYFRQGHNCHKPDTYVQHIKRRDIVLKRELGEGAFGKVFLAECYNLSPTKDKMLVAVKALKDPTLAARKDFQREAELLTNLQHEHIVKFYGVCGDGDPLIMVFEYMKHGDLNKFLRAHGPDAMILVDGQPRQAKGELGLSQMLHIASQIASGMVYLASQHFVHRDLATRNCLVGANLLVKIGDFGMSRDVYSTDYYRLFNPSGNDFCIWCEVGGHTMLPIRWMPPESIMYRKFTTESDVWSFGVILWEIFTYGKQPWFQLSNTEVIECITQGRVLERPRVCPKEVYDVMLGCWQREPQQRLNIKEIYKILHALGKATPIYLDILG
UniProt O96013: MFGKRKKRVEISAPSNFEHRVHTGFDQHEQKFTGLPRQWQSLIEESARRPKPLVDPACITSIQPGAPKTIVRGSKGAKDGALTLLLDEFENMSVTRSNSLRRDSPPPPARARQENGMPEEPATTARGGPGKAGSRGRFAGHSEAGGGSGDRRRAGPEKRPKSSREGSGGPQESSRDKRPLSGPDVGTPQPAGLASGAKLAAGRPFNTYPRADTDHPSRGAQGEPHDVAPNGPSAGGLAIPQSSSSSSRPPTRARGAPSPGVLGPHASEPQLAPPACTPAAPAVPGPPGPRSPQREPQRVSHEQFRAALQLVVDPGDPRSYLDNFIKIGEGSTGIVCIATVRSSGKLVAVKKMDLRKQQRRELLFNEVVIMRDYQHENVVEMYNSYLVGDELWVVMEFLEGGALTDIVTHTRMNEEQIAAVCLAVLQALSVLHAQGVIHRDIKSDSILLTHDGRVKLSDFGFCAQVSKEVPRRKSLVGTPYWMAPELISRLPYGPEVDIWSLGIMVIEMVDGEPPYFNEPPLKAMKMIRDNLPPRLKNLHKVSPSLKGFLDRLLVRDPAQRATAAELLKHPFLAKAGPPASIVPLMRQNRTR
UniProt Q96KB5: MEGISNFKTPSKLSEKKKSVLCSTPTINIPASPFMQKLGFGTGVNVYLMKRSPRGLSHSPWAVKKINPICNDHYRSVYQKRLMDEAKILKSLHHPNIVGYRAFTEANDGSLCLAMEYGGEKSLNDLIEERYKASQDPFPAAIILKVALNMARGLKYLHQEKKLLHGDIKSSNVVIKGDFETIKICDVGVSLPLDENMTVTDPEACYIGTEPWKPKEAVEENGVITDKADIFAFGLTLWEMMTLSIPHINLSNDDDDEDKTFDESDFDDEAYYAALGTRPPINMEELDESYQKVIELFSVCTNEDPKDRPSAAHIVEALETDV
UniProt P09619, whole entry: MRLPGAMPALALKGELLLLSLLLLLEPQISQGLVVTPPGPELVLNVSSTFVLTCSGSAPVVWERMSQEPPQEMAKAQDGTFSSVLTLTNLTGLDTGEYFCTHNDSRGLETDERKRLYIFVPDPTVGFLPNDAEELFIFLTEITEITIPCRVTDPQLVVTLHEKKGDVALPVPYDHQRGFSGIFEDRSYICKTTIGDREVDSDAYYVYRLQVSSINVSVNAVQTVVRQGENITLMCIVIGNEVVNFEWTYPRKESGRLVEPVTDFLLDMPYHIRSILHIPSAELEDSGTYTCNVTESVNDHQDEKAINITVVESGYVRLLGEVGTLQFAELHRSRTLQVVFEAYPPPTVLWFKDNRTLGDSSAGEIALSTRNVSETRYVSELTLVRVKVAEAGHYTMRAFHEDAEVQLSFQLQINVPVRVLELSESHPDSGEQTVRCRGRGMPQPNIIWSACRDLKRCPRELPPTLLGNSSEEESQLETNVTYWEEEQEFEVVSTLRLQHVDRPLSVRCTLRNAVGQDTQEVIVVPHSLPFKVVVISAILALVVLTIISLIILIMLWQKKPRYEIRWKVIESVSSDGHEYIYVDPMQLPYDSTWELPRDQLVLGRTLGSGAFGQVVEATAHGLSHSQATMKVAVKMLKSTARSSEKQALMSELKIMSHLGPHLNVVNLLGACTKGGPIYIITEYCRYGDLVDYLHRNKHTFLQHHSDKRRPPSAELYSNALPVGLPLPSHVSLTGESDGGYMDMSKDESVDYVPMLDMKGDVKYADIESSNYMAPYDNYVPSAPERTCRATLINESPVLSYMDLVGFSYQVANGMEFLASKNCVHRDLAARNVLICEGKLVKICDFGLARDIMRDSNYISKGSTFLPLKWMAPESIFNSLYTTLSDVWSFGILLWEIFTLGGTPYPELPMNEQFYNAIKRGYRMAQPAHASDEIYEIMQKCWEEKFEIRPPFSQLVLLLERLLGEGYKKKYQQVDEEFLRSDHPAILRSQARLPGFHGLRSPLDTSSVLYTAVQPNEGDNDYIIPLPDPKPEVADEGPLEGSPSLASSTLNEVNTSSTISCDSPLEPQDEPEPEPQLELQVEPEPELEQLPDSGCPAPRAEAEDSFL
UniProt Q15118, whole entry, looked up: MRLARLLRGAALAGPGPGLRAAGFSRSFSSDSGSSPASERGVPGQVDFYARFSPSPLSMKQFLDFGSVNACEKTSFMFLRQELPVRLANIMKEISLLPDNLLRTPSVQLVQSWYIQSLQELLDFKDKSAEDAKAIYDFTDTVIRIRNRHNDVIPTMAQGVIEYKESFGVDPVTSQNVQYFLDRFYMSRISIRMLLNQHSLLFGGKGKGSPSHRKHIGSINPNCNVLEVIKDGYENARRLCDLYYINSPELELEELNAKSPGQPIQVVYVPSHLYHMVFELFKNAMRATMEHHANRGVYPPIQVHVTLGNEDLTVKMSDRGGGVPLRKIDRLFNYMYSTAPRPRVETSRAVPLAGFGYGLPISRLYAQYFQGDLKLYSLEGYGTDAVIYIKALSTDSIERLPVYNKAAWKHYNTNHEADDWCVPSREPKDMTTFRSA
UniProt O15530: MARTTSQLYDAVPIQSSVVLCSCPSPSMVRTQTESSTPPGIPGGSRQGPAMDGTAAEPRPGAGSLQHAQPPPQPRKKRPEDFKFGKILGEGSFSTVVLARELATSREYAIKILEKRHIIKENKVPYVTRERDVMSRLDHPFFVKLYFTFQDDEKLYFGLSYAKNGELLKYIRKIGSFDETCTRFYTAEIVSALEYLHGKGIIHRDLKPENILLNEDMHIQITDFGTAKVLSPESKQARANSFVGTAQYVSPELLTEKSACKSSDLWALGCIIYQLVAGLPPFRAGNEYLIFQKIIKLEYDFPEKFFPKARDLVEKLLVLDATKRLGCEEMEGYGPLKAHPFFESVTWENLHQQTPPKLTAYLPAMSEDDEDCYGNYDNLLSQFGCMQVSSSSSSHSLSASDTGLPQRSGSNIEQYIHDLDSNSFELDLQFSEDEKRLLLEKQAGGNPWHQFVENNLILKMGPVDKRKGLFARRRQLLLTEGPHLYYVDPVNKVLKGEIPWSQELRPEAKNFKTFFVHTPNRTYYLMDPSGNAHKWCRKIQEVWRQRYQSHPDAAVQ
UniProt Q9UBF8: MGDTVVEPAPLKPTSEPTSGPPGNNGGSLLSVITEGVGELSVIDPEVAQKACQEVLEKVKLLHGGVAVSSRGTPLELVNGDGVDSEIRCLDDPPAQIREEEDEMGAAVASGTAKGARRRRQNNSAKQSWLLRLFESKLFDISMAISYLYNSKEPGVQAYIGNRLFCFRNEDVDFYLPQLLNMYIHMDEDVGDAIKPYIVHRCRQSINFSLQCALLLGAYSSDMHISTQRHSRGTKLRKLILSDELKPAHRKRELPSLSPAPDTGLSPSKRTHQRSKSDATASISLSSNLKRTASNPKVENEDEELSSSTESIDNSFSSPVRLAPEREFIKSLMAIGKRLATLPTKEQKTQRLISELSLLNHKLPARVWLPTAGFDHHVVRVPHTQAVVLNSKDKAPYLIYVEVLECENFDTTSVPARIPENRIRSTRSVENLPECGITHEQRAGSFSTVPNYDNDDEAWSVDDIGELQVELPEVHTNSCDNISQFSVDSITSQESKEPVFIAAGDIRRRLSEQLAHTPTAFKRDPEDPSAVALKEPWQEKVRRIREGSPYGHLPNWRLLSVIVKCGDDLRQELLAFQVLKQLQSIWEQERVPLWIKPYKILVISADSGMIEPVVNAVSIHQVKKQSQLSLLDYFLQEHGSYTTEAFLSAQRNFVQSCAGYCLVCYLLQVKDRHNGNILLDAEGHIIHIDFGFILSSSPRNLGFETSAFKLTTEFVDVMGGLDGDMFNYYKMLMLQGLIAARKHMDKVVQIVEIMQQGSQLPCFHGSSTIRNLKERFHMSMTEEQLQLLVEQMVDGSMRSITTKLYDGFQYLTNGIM
UniProt P53350, whole entry: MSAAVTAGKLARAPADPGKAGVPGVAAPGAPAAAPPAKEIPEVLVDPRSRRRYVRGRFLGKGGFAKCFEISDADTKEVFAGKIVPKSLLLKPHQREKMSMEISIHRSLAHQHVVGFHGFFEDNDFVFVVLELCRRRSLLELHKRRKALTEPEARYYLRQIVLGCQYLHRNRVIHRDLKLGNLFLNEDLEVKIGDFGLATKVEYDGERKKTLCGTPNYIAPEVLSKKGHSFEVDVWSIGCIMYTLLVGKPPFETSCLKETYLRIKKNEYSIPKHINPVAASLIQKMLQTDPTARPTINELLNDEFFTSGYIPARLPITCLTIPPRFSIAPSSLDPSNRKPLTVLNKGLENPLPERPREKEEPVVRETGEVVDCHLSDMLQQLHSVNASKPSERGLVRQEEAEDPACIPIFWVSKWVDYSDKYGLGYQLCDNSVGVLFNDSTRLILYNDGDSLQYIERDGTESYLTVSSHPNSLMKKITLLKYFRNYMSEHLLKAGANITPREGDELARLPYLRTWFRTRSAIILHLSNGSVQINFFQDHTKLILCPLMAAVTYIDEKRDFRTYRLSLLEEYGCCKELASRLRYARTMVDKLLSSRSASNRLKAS
UniProt Q13131: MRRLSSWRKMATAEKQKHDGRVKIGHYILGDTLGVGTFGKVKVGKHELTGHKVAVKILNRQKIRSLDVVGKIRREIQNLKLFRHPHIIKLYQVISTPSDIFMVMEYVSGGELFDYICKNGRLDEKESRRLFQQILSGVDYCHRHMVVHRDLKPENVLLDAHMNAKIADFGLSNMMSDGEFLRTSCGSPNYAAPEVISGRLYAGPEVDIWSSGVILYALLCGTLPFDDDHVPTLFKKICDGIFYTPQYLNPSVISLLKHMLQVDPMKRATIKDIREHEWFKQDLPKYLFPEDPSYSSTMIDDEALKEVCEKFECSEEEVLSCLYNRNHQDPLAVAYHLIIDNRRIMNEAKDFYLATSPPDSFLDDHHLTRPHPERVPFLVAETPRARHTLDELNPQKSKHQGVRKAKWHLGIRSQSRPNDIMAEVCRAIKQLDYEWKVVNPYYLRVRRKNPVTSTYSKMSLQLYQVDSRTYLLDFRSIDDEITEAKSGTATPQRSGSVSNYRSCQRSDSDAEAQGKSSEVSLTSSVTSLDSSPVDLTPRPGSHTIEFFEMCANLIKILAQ

Legend:
Test in all cases: number of time points (of 5) at which kinase-Nluc abundance scored as decreased, DMSO-normalised (count); higher = more persistent destabilization
Conditions in all cases: K562; 2-18 h
NTRK3 = NTRK3 (UniProt Q16288)
PAK4 = PAK4 (UniProt O96013)
PBK = PBK (UniProt Q96KB5)
PDGFRB = PDGFRB (UniProt P09619)
PDK1 = PDK1 (UniProt Q15118)
PDPK1 = PDPK1 (UniProt O15530)
PIK4CA = PIK4CA (UniProt P42356)
PIK4CB = PIK4CB (UniProt Q9UBF8)
PLK1 = PLK1 (UniProt P53350)
PRKAA1 = PRKAA1 (UniProt Q13131)

Measured: number of time points

Cc1ccc(C(=O)Nc2ccc(Oc3cc4cnn(C)c4cc3-c3cn[nH]c3)c(F)c2)c(=O)n1-c1ccc(F)cc1 [Merestinib dihydrochloride] (2.5 µM)
0: all assays above

C=C1C(=O)O[C@H]2C[C@H](C)C(/C=C/C(C)=O)=CC[C@H]12 [Xanthatin] (2.5 µM)
0: all assays above

Cc1cccc(-c2[nH]ncc2-c2ccc(F)c(-c3cnn(CCO)c3)c2)n1 (10 µM)
0: all assays above

Oc1ccc(Nc2nc(-c3ccc(Cl)cc3)cs2)cc1 (10 µM)
0: all assays above

C=CC(=O)Nc1ccc(CN2C(=O)N(c3cc(OC)cc(OC)c3)Cc3cnc(Nc4ccc(N5CCN(C)CC5)cc4)nc32)cc1 (2.5 µM)
0: all assays above

Cc1cc(O)c2c(c1)C(=O)c1cc(O)cc(O)c1C2=O [Emodin] (10 µM)
0: all assays above

Cc1cc(=O)oc2c(C=O)c(O)ccc12 (10 µM)
0: all assays above

O=C1NC(=O)/C(=C\c2cccc(C(F)(F)F)c2)S1 (2.5 µM)
0: all assays above

CCS(=O)(=O)c1ncc(Cl)c(C(=O)N(Cc2ccc(Cl)cc2)Cc2ccco2)n1 (2.5 µM)
0: all assays above

COc1ccccc1-c1cc(Nc2cccc(CS(N)(=O)=O)c2)ncn1 (10 µM)
3: NTRK3
1: PRKAA1
2: PDPK1
0: all other assays above

OCCn1cc(-c2ccc3c(c2)CC/C3=N\O)c(-c2ccncc2)n1 (10 µM)
0: all assays above

C=C(CC[C@@H](C(=O)O)[C@H]1[C@H](O)C[C@@]2(C)C3=C(CC[C@]12C)[C@@]1(C)CC[C@H](OC(C)=O)C(C)(C)[C@@H]1CC3)C(C)C [Pachymic acid] (10 µM)
0: all assays above

CCOc1ccc2cc(-c3nn(CC4CCN(C)CC4)c4ncnc(N)c34)ccc2n1 (10 µM)
0: all assays above

Cn1cc(-c2cnn3c(N)c(Br)c([C@@H]4CCCNC4)nc23)cn1 (2.5 µM)
2: PDPK1 | PIK4CA
1: NTRK3 | PDGFRB
0: all other assays above

C[C@H](c1ccnc(Nc2nc3ccc(-c4cc(N(C)C)ncn4)cc3[nH]2)c1)N1CCN(C(=O)CC(F)(F)F)CC1 (2.5 µM)
0: all assays above

CCS(=O)(=O)Nc1ccc2[nH]c(O)c(C(=Nc3ccc(CN4CCCCC4)cc3)c3ccccc3)c2c1 [Hesperadin] (2.5 µM)
4: PDPK1
1: PIK4CB
2: PRKAA1
3: NTRK3
0: all other assays above

COc1cc(OC2CCN(C)CC2)ccc1Nc1ncc2c(n1)n(C1CCCC1)c(=O)n2C (10 µM)
0: all assays above

Cn1cnc2c(F)c(Nc3ccc(Br)cc3Cl)c(C(=O)NOCCO)cc21 [Selumetinib (sulfate)] (10 µM)
0: all assays above

N#Cc1c(C2CCNCC2)cc(-c2c(O)cccc2OCC2CC2)nc1N [ACHP (Hydrochloride)] (10 µM)
0: all assays above

NC(=O)c1ccc2[nH]ccc2c1 (10 µM)
0: all assays above

CC#CC(=O)N1CC[C@@H](n2c(=O)n(-c3ccc(Oc4ccccc4)cc3)c3c(N)ncnc32)C1 [Tirabrutinib] (10 µM)
0: all assays above

16 consecutive entries from above, quoted:
Oc1ccc(Nc2nc(-c3ccc(Cl)cc3)cs2)cc1 (10 µM)
0: all assays above

C=CC(=O)Nc1ccc(CN2C(=O)N(c3cc(OC)cc(OC)c3)Cc3cnc(Nc4ccc(N5CCN(C)CC5)cc4)nc32)cc1 (2.5 µM)
0: all assays above

Cc1cc(O)c2c(c1)C(=O)c1cc(O)cc(O)c1C2=O [Emodin] (10 µM)
0: all assays above

Cc1cc(=O)oc2c(C=O)c(O)ccc12 (10 µM)
0: all assays above

O=C1NC(=O)/C(=C\c2cccc(C(F)(F)F)c2)S1 (2.5 µM)
0: all assays above

CCS(=O)(=O)c1ncc(Cl)c(C(=O)N(Cc2ccc(Cl)cc2)Cc2ccco2)n1 (2.5 µM)
0: all assays above

COc1ccccc1-c1cc(Nc2cccc(CS(N)(=O)=O)c2)ncn1 (10 µM)
3: NTRK3
1: PRKAA1
2: PDPK1
0: all other assays above

OCCn1cc(-c2ccc3c(c2)CC/C3=N\O)c(-c2ccncc2)n1 (10 µM)
0: all assays above

C=C(CC[C@@H](C(=O)O)[C@H]1[C@H](O)C[C@@]2(C)C3=C(CC[C@]12C)[C@@]1(C)CC[C@H](OC(C)=O)C(C)(C)[C@@H]1CC3)C(C)C [Pachymic acid] (10 µM)
0: all assays above

CCOc1ccc2cc(-c3nn(CC4CCN(C)CC4)c4ncnc(N)c34)ccc2n1 (10 µM)
0: all assays above

Cn1cc(-c2cnn3c(N)c(Br)c([C@@H]4CCCNC4)nc23)cn1 (2.5 µM)
2: PDPK1 | PIK4CA
1: NTRK3 | PDGFRB
0: all other assays above

C[C@H](c1ccnc(Nc2nc3ccc(-c4cc(N(C)C)ncn4)cc3[nH]2)c1)N1CCN(C(=O)CC(F)(F)F)CC1 (2.5 µM)
0: all assays above

CCS(=O)(=O)Nc1ccc2[nH]c(O)c(C(=Nc3ccc(CN4CCCCC4)cc3)c3ccccc3)c2c1 [Hesperadin] (2.5 µM)
4: PDPK1
1: PIK4CB
2: PRKAA1
3: NTRK3
0: all other assays above

COc1cc(OC2CCN(C)CC2)ccc1Nc1ncc2c(n1)n(C1CCCC1)c(=O)n2C (10 µM)
0: all assays above

Cn1cnc2c(F)c(Nc3ccc(Br)cc3Cl)c(C(=O)NOCCO)cc21 [Selumetinib (sulfate)] (10 µM)
0: all assays above

N#Cc1c(C2CCNCC2)cc(-c2c(O)cccc2OCC2CC2)nc1N [ACHP (Hydrochloride)] (10 µM)
0: all assays above

More entries:

Cc1ccc(OCCSc2ncccn2)c(Br)c1 [ZLN024 (hydrochloride)] (10 µM)
0: all assays above

COc1ccc(-c2ccc3c(N4CCOCC4)nc(N4C[C@@H](C)O[C@@H](C)C4)nc3n2)cc1CO (2.5 µM)
0: all assays above

FC(F)c1nc2ccccc2n1-c1nc(N2CCOCC2)nc(N2CCOCC2)n1 (2 µM)
0: all assays above

Nc1cc(C(F)(F)F)c(-c2cc(N3CCOCC3)nc(N3CCOCC3)n2)cn1 [Buparlisib (Hydrochloride)] (2.5 µM)
1: PDGFRB | PRKAA1
2: PIK4CA
0: all other assays above

Cc1c(-c2c(F)cc(C(N)=O)c3[nH]c4c(c23)CC[C@H](C(C)(C)O)C4)cccc1-n1c(=O)c2cccc(F)c2n(C)c1=O (2.5 µM)
0: all assays above

CCN1CCN(Cc2ccc(Nc3ncc(F)c(-c4cc(F)c5nc(C)n(C(C)C)c5c4)n3)nc2)CC1 [Abemaciclib (methanesulfonate)] (10 µM)
3: PRKAA1
0: all other assays above

Cc1[nH]c(/C=C2\C(=O)Nc3ccc(F)cc32)c(C)c1C(=O)N[C@H]1CCN(C(=O)N(C)C)C1 [Vorolanib] (10 µM)
0: all assays above

Cn1cc(-c2ccc3nnc(Sc4ccc5ncccc5c4)n3n2)cn1 (10 µM)
0: all assays above

COc1cc2nccc(Oc3ccc(NC(=O)NC4CC4)c(Cl)c3)c2cc1C(N)=O [Lenvatinib (mesylate)] (10 µM)
1: PLK1
4: PDPK1
3: PIK4CB
0: all other assays above

O=C1NC(=O)/C(=C/c2ccc3nccnc3c2)S1 (10 µM)
0: all assays above

CCc1cc2c(cc1N1CCC(N3CCOCC3)CC1)C(C)(C)c1[nH]c3cc(C#N)ccc3c1C2=O [Alectinib (Hydrochloride)] (2 µM)
0: all assays above

COc1ccc(Cl)c(Nc2nc3ccccc3nc2NS(=O)(=O)c2cccc(NC(=O)C(C)(C)N)c2)c1 [Pilaralisib] (10 µM)
0: all assays above

Cc1cccc(Oc2cnc(=O)[nH]c2)c1 [Tolimidone] (10 µM)
0: all assays above

CCOC(=O)N1CCN(C(=O)[C@H](Cc2cccc(C(=N)N)c2)NS(=O)(=O)c2c(C(C)C)cc(C(C)C)cc2C(C)C)CC1 (10 µM)
0: all assays above

C[C@@H]1COCCN1c1cc(C2([S@@](C)(=N)=O)CC2)nc(-c2ccnc3[nH]ccc23)n1 [(S)-Ceralasertib] (10 µM)
0: all assays above

COc1cc2c(cc1OC)CN(S(=O)(=O)c1ccc(OC)c(N3CCN(C(=O)c4ccc(F)cc4C(F)(F)F)CC3)c1)CC2 (10 µM)
0: all assays above

CCCCCCCCCCCCC/C=C/[C@@H](O)[C@@H](N)CO [D-erythro-Sphingosine] (2.5 µM)
0: all assays above

Nc1ncnc2c1c(-c1cccc(OCc3ccccc3)c1)cn2C1CC(CN2CCC2)C1 (stereo not given) (2.5 µM)
0: all assays above

O=S(=O)(NCCCN1c2ccccc2CCc2ccc(Cl)cc21)c1ccc(OC(F)(F)F)cc1 (2.5 µM)
0: all assays above

c1ccc(-c2[nH]ncc2-c2ccnc3ccccc23)nc1 (10 µM)
0: all assays above

C=CC(=O)Nc1cc(Nc2ncc(Cl)c(-c3c[nH]c4ccccc34)n2)c(OC)cc1N(C)CCN(C)C [Mutant EGFR inhibitor] (2.5 µM)
2: NTRK3 | PIK4CB
3: PDPK1
0: all other assays above

Cc1ccccc1-c1c2nccc(-c3ccc(F)cc3F)c2cc[n+]1[O-] (10 µM)
0: all assays above

O=C(Nc1ccc(CN2CCOCC2)cc1)c1ccc(-c2cccc(Cl)c2)o1 (10 µM)
0: all assays above

CN(CC(=O)N(Cc1ccc(C2CCCCC2)cc1)c1ccc(C(=O)NO)cc1)S(=O)(=O)c1c(F)c(F)c(F)c(F)c1F (2.5 µM)
0: all assays above

Cc1ccc(CNc2ncnc3ccc(-c4ccc(CO)o4)cc23)o1 (10 µM)
0: all assays above

N#CCC1CCN(c2nc(Nc3ccc(N4CCC(O)CC4)cc3)c3c(=O)[nH]ncc3n2)CC1 [Gusacitinib] (10 µM)
2: PDPK1
0: all other assays above

COc1cc2ncnc(Nc3ccc(Cl)cc3F)c2cc1OC (10 µM)
0: all assays above

COc1ncc(Cl)cc1S(=O)(=O)Nc1ccc(F)c(C#Cc2cnc(N)nc2)c1F (2.5 µM)
0: all assays above

Cc1ccc(C(=O)Nc2ccc(Oc3cc4cnn(C)c4cc3-c3cn[nH]c3)c(F)c2)c(=O)n1-c1ccc(F)cc1 [Merestinib] (2.5 µM)
4: PDGFRB
0: all other assays above

CN1CCN(c2cnc3c(C4CCN(C(=O)c5ccc(OC(F)(F)F)cc5N)CC4)ncnc3c2)CC1 (10 µM)
0: all assays above

CN(C)CCSSCCNC(=O)C1CCN(C(=O)CSc2ccc(Cl)cc2)CC1 (10 µM)
0: all assays above

Cc1cc2ncc(-c3ccc(O)c(O)c3)nc2cc1C [Tyrphostin AG1433] (10 µM)
0: all assays above

CC1(C)C(O[C@@H]2OC[C@@H](O)[C@H](O)[C@H]2O)CC[C@]23CC24CC[C@]2(C)[C@@H]([C@@]5(C)CC[C@@H](C(C)(C)O)O5)[C@H](O)C[C@@]2(C)C4C[C@@H](O[C@@H]2O[C@H](CO)[C@@H](O)[C@H](O)[C@H]2O)C13 (stereo not given in full) [Astragaloside IV] (10 µM)
0: all assays above

FC(F)(c1ccc2ncccc2c1)c1nnc2ccc(-c3ccncc3)nn12 (10 µM)
0: all assays above

C=CC(=O)Nc1cc(C)ccc1Nc1nc(Nc2cc(OC)ncc2C)ncc1C(F)(F)F (10 µM)
0: all assays above

Nc1nc2ccc(Cl)cc2c2nc(-c3ccco3)nn12 (10 µM)
0: all assays above

Cc1[nH]c(/C=C2\C(=O)Nc3ccccc32)c(C)c1CCC(=O)O [(Z)-Orantinib] (10 µM)
0: all assays above

CC[C@@H](Oc1nc(Oc2cc(C)cc(-c3cccc(CN)c3)c2)c(F)cc1F)C(=O)O (10 µM)
0: all assays above

CCCS(=O)(=O)Nc1ccc(F)c(C(=O)c2c[nH]c3ncc(-c4ccc(Cl)cc4)cc23)c1F [Vemurafenib] (10 µM)
1: NTRK3
0: all other assays above

Cn1ncc(Cl)c1-c1cc(C(=O)N[C@H](CN)Cc2ccc(F)c(F)c2)oc1Cl [Uprosertib] (10 µM)
0: all assays above

C[C@@H](c1ccc(F)cc1)n1nnc2cnc3ccc(-c4ccc5ocnc5c4)cc3c21 (10 µM)
0: all assays above

O=c1[nH]c(=O)n([C@@H]2O[C@H](CO)[C@@H](O)[C@@H]2O)cc1/C=C/Br [Sorivudine] (10 µM)
0: all assays above

C=CC(=O)Nc1cccc(Nc2nc(Nc3ccc(N4CCN(C(C)=O)CC4)cc3OC)ncc2C(F)(F)F)c1 [Rociletinib] (10 µM)
2: PRKAA1
0: all other assays above

CN(C)C(=O)Cn1cc(-c2ccc(-c3cncc4ccccc34)cc2)cn1 (10 µM)
0: all assays above

CCN1CCC(n2cc(CNc3cc(Cl)c4ncc(C#N)c(Nc5ccc(F)c(Cl)c5)c4c3)nn2)CC1 [Cot inhibitor-2] (2.5 µM)
0: all assays above

Cn1cnc2c(F)c(Nc3ccc(Br)cc3Cl)c(C(=O)NOCCO)cc21 [Selumetinib] (10 µM)
0: all assays above

COCCNc1nc2ccc(C#CC3(O)CCCCC3)cc2n1-c1ccnc(N)n1 (10 µM)
0: all assays above

O=C(N/N=C/c1coc2ccccc2c1=O)c1cccnc1 (10 µM)
0: all assays above

CC(C)(C)c1cc(O)ccc1O (10 µM)
0: all assays above

NC(=O)c1ccc(-c2nc(-c3ccc4c(c3)OCCO4)c(-c3ccccn3)[nH]2)cc1 (10 µM)
1: NTRK3
0: all other assays above

Oc1cc2c(cc1O)C(Cc1cccc3ccccc13)NCC2 (stereo not given) (10 µM)
0: all assays above

Oc1cc(O)c2cc(O)c(-c3cc(O)c(O)c(O)c3)[o+]c2c1 [Delphinidin (chloride)] (10 µM)
1: PBK | PDPK1 | PLK1 | PRKAA1
0: all other assays above

NC(=O)c1nnc(N[C@@H]2CCCC[C@@H]2N)nc1Nc1cccc2cc[nH]c12 (10 µM)
0: all assays above
